Results as given in PMC4099074, “Palmitoylation of Gephyrin Controls Receptor Clustering and Plasticity of GABAergic Synapses” (PLoS Biology, 2014).
No constants are given. Whether binding was seen depends on the method and setting. In cells and extracts the contact can be indirect. Some results given as binding are weak or reduced against the parent protein; the word gives no strength. Sequences can lack the tags named with a protein.

Sequences of proteins named here, by UniProt entry; tags and fusion partners are left off.
UniProt Q9ESG8: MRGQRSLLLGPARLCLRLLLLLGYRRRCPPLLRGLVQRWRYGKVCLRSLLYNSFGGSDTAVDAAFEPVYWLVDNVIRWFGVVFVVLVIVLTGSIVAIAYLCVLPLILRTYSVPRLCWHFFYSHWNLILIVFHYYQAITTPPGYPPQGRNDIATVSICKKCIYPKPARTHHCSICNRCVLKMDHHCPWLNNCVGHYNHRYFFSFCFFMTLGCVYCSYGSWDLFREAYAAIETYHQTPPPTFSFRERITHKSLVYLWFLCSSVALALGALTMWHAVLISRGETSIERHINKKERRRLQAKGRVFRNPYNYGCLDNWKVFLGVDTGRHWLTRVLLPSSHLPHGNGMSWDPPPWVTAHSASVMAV

T1: DHHC-12-HA (HA-tagged murine DHHC-12), in neurons (mouse) (UniProt Q8VC90)
T1 sequence: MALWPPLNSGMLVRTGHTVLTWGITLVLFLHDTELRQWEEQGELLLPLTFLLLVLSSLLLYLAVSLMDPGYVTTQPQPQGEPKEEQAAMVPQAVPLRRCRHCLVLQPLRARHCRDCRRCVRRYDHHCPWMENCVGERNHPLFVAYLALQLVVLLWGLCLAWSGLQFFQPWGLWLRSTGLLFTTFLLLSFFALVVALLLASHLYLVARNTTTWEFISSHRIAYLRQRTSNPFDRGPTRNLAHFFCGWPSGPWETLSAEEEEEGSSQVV

T2: HA-tagged DHHC12 (murine), in HEK293 (mouse) (UniProt Q8VC90)
T2 sequence: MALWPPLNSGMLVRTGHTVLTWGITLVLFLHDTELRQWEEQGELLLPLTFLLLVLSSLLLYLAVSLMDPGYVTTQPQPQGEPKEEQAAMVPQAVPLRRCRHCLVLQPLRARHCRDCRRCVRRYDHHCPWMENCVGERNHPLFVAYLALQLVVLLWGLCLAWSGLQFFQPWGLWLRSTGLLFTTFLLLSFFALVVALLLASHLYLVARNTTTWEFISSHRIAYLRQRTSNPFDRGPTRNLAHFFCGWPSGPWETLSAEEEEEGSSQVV

T3: HA-DHHC-22 (murine) (mouse) (UniProt Q9CWU2)
T3 sequence: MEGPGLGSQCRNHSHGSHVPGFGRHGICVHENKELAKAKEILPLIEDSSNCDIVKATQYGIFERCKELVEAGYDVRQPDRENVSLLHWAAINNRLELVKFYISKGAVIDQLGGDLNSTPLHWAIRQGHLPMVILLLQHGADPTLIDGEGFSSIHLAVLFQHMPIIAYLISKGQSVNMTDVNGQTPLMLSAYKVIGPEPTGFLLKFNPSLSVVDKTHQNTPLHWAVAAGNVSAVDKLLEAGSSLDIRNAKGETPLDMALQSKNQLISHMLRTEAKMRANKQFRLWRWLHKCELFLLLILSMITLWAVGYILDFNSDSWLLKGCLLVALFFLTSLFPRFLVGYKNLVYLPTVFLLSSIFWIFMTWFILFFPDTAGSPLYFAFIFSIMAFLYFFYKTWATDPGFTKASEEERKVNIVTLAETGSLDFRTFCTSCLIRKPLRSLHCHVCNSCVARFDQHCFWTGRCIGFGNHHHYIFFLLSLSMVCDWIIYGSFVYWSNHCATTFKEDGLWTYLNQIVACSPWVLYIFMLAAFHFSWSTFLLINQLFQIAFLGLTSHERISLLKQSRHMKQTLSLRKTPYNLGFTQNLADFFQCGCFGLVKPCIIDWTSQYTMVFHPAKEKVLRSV


Key:
[1] = biological target: T1, DHHC-12-HA (HA-tagged murine DHHC-12), in neurons (mouse); assay: proximity ligation; in situ PLA (Duolink II) in primary hippocampal neurons 24 h after cotransfection of DHHC-12-HA and gephyrin-GFP
[2] = biological target: T2, HA-tagged DHHC12 (murine), in HEK293 (mouse); assay: co-IP; HEK293 lysates co-expressing gephyrin-myc and HA-tagged DHHC enzymes; protein-A/G Sepharose preloaded with HA-tag antibodies, 2 h at room temperature; IP buffer 50 mM Tris pH 7.4, 25 mM NaCl, 1% Triton X-100
[3] = biological target: T3, HA-DHHC-22 (murine) (mouse); assay: as above
[4] = biological target: HA-DHHC-16 (murine) (mouse) (UniProt Q9ESG8); assay: as above

Row | binding [1] | binding [2] | binding [3] | binding [4] | Binder
1 | binds |  |  |  | gephyrin-GFP (EGFP-tagged gephyrin, wild type) (protein, UniProt Q03555 1-768) MATEGMILTNHDHQIRVGVLTVSDSCFRNLAEDRSGINLKDLVQDPSLLGGTISAYKIVPDEIEEIKETLIDWCDEKELNLILTTGGTGFAPRDVTPEKFPTFPFCGLQKGATKEVIEREAPGMALAMLMGSLNVTPLGMLSRPVCGIRGKTLIINLPGSKKGSQECFQFILPALPHAIDLLRDAIVKVKEVHDELEDLPSPPPPLSPPPTTSPHKQTEDKGVQCEEEEEEKKDSGVASTEDSSSSHITAAALAAKIPDSIISRGVQVLPRDTASLSTTPSESPRAQATSRLSTASCPTPKQIRRPDESKGVASRVGSLKVQSRCSSKENILRASHSAVDITKVARRHRMSPFPLTSMDKAFITVLEMTPVLGTEIINYRDGMGRVLAQDVYAKDNLPPFPASVKDGYAVRAADGPGDRFIIGESQAGEQPTQTVMPGQVMRVTTGAPIPCGADAVVQVEDTELIRESDDGTEELEVRILVQARPGQDIRPIGHDIKRGECVLAKGTHMGPSEIGLLATVGVTEVEVNKFPVVAVMSTGNELLNPEDDLLPGKIRDSNRSTLLATIQEHGYPTINLGIVGDNPDDLLNALNEGISRADVIITSGGVSMGEKDYLKQVLDIDLHAQIHFGRVFMKPGLPTTFATLDIDGVRKIIFALPGNPVSAVVTCNLFVVPALRKMQGILDPRPTIIKARLSCDVKLDPRPEYHRCILTWHHQEPLPWAQSTGNQMSSRLMSMRSANGLLMLPPKTEQYVELHKGEVVDVMVIGRL
2 |  | binds | no binding | no binding | gephyrin-myc (Myc-tagged gephyrin) (protein, UniProt Q03555 1-768) MATEGMILTNHDHQIRVGVLTVSDSCFRNLAEDRSGINLKDLVQDPSLLGGTISAYKIVPDEIEEIKETLIDWCDEKELNLILTTGGTGFAPRDVTPEKFPTFPFCGLQKGATKEVIEREAPGMALAMLMGSLNVTPLGMLSRPVCGIRGKTLIINLPGSKKGSQECFQFILPALPHAIDLLRDAIVKVKEVHDELEDLPSPPPPLSPPPTTSPHKQTEDKGVQCEEEEEEKKDSGVASTEDSSSSHITAAALAAKIPDSIISRGVQVLPRDTASLSTTPSESPRAQATSRLSTASCPTPKQIRRPDESKGVASRVGSLKVQSRCSSKENILRASHSAVDITKVARRHRMSPFPLTSMDKAFITVLEMTPVLGTEIINYRDGMGRVLAQDVYAKDNLPPFPASVKDGYAVRAADGPGDRFIIGESQAGEQPTQTVMPGQVMRVTTGAPIPCGADAVVQVEDTELIRESDDGTEELEVRILVQARPGQDIRPIGHDIKRGECVLAKGTHMGPSEIGLLATVGVTEVEVNKFPVVAVMSTGNELLNPEDDLLPGKIRDSNRSTLLATIQEHGYPTINLGIVGDNPDDLLNALNEGISRADVIITSGGVSMGEKDYLKQVLDIDLHAQIHFGRVFMKPGLPTTFATLDIDGVRKIIFALPGNPVSAVVTCNLFVVPALRKMQGILDPRPTIIKARLSCDVKLDPRPEYHRCILTWHHQEPLPWAQSTGNQMSSRLMSMRSANGLLMLPPKTEQYVELHKGEVVDVMVIGRL
